Experimental data taken from PMC4413894.
Residue numbers refer to the chain shown, from its start. Results are given in words; binding and its absence hold for the method and conditions named. Binding seen in cells or lysates may run through a third protein. Some results given as binding are weak or reduced against the parent protein; the word gives no strength. Tags and fused reporters may be left off the sequences shown.

By UniProt entry, the sequences of proteins in these tests, tags left out.
UniProt Q9NRC8: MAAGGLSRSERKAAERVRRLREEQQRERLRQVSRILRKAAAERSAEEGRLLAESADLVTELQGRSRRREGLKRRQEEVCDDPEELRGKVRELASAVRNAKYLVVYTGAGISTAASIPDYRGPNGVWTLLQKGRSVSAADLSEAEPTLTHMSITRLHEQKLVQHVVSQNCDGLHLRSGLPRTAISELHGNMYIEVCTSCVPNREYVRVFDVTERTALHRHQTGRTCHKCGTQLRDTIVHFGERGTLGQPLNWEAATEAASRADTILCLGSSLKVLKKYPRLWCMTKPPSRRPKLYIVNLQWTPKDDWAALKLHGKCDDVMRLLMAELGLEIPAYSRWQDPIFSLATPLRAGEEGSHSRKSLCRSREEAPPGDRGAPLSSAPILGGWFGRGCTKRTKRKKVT

Legend:
Flag-tagged SIRT1 WT = biological target: T1, Flag-tagged SIRT1 WT (UniProt Q923E4); experiment: co-IP; Flag co-immunoprecipitation from cell lysate with ANTI-FLAG M2 affinity gel, western blot
T1 sequence: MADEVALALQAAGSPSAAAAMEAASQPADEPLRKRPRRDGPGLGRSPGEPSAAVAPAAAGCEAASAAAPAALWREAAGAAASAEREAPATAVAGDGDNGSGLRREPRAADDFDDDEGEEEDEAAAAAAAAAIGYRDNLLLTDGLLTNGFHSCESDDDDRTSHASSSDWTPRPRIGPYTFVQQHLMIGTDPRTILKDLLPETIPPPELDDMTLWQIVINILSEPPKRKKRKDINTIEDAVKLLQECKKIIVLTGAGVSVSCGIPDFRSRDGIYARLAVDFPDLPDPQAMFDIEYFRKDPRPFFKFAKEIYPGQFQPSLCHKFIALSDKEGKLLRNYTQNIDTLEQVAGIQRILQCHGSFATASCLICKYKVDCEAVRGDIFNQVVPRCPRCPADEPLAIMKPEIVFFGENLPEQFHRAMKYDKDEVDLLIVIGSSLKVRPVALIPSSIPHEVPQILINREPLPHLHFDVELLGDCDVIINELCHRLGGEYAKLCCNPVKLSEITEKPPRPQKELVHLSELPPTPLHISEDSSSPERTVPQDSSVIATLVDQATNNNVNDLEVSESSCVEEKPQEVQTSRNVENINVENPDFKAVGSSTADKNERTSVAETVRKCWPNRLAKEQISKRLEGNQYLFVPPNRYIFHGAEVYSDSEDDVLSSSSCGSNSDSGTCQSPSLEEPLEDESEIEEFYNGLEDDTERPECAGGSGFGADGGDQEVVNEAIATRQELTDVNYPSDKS

[1] = biological target: T2, Flag-tagged SIRT1 H355Y mutant (UniProt Q923E4); experiment: as above
T2 sequence: T1 sequence with H355Y

Question: For “endogenous SIRT7 (from UniProt Q9NRC8 1-400)”, which binding (Flag-tagged SIRT1 WT) is on record?
Answer: binds

Question: And the binding [1]?
Answer: binds
